In the supplement of paper PMC9135407:
Where “and” joins values, the source holds several entries; their conditions need not be identical. Equal values may be shown once. Where a name gives a salt, the structure may show the parent alone. ± gives the standard deviation of the averaged measurements. The list shows a part of the results. Baselines shift from plate to plate; read single values as rough.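 Culture-activated primary human stellate myofibroblasts, where regained lipid droplets signal inactivation. Value: share of Hoechst-counted cells above a per-plate Bodipy cutoff, in duplicate wells, with DMSO negative and nortriptyline positive controls on each plate. Hits: a control-normalized score above the plate's top-tenth-percentile nortriptyline wells, or one of a plate's three best wells. Final well concentrations are not given.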

System: primary human hepatic stellate cells (donor 1)
Test: percent Bodipy-positive cells; higher = more lipid droplet accumulation
Conditions: 48 h
[1] = library stock concentration: 10 mM
[2] = library stock concentration: 80 uM
[3] = library stock concentration: 400 uM
[4] = library stock concentration: 2 mM
[5] = library stock concentration: 3.33 mM
[6] = library stock concentration: 1 mM

Structure (SMILES): CCOc1ccc(NC(=O)CC(C)O)cc1 (stereo unspecified)
- percent Bodipy-positive cells [1]: 36.5 ± 5.2%

Structure (SMILES): C=CCn1c(=O)c2cnc(Nc3ccc(N4CCN(C)CC4)cc3)nc2n1-c1cccc(C(C)(C)O)n1
- percent Bodipy-positive cells [2]: 18.6 ± 11%
- percent Bodipy-positive cells [3]: 24.8 ± 6.9%
- percent Bodipy-positive cells [4]: 28.1 ± 4.6%
- percent Bodipy-positive cells [5]: 18.9 ± 6.7%
- percent Bodipy-positive cells [1]: 26.1% and 42.9%

Structure (SMILES): CC(C)(C)NCC(O)c1ccc(O)c(CO)c1 (racemic) [Albuterol (+/-)]
- percent Bodipy-positive cells [1]: 32.8 ± 6.7%

Structure (SMILES): Clc1ccc(C(Cn2ccnc2)OCc2csc3c(Cl)cccc23)c(Cl)c1 (stereo unspecified) [Sertaconazole nitrate]
- percent Bodipy-positive cells: 13.5 ± 2.7%
- percent Bodipy-positive cells [5]: 10.9 ± 3%
- percent Bodipy-positive cells [1]: 90.2 ± 2.4%

Structure (SMILES): CCCCCCCCCCCCCCCC(=O)NC(CO)CO [Palmitoyl Serinol]
- percent Bodipy-positive cells [6]: 12.1 ± 1.7%

Structure (SMILES): Cl[H].CN1CC\C(=C(/c2c(cccc2)C=C3)\c(cccc4)c34)\CC1 [Cyproheptadine hydrochloride]
- percent Bodipy-positive cells [1]: 71.3 ± 7.3%

Structure (SMILES): CCCCC/C=C\C/C=C\C/C=C\C/C=C\CCCCN1C(=O)C=CC1=O [N-Arachidonyl Maleimide]
- percent Bodipy-positive cells [6]: 8.71 ± 3.6%

Structure (SMILES): CN(CCOc1ccc(C[C@H](Nc2ccccc2C(=O)c2ccccc2)C(=O)O)cc1)c1ccccn1
- percent Bodipy-positive cells [1]: 3.72 ± 1.1%

Structure (SMILES): CC(NC(=O)Cc1cc(F)cc(F)c1)C(=O)NC1C(=O)N(C)c2ccccc2-c2ccccc21 (stereo unspecified)
- percent Bodipy-positive cells [5]: 9.54 ± 5.4%
- percent Bodipy-positive cells [1]: 64.5 ± 14%

Structure (SMILES): C[C@H]1[C@H](OC(=O)CCC(=O)O)O[C@@H]2O[C@@]3(C)CC[C@H]4[C@H](C)CC[C@@H]1[C@@]24OO3 [Artesunate]
- percent Bodipy-positive cells [5]: 15.5 ± 7.5%
- percent Bodipy-positive cells (library stock concentration: 5.2 mM): 5.69 ± 2.5%
- percent Bodipy-positive cells [1]: 15.238 ± 0.0057%

Structure (SMILES): C[C@H]1[C@H](OC(=O)CCC(=O)O)O[C@@H]2O[C@@]3(C)CC[C@H]4[C@H](C)CC[C@@H]1[C@@]24OO3
- percent Bodipy-positive cells [1]: 6.29 ± 3.3%

Structure (SMILES): CC(N)C(=O)OC(C)(C)Cc1ccc(Cl)cc1 (stereo unspecified) [Alaproclate]
- percent Bodipy-positive cells [1]: 57.4 ± 14%

Structure (SMILES): CC(N)C(=O)OC(C)(C)Cc1ccc(Cl)cc1 (stereo unspecified) [Alaproclate hydrochloride]
- percent Bodipy-positive cells [1]: 85.5 ± 4.1%

Structure (SMILES): O=C(O)CCNC(=O)c1ccc(/N=N/c2ccc(O)c(C(=O)O)c2)cc1 [Balsalazide Sodium]
- percent Bodipy-positive cells: 4.02 ± 1.5%

Structure (SMILES): C=CC(=O)Nc1cccc(Nc2nc(NC3CCC(N(C)C)CC3)nc3c2ncn3C(C)C)c1 (stereo unspecified)
- percent Bodipy-positive cells [2]: 33.2 ± 6.4%
- percent Bodipy-positive cells [3]: 50.9 ± 8.4%
- percent Bodipy-positive cells [4]: 54 ± 6.3%
- percent Bodipy-positive cells [1]: 98.4 ± 1.2%

Structure (SMILES): C[n+]1ccccc1/C=N/O
- percent Bodipy-positive cells [1]: 35.6 ± 1.3%

Structure (SMILES): C[n+]1ccccc1/C=N/O [Pralidoxime chloride]
- percent Bodipy-positive cells: 13.9 ± 5.1%
- percent Bodipy-positive cells (library stock concentration: 11.6 mM): 15.4 ± 4.4%

Structure (SMILES): CCCCC[C@@H](O)/C=C/[C@H]1C(=O)C[C@H](O)[C@@H]1C/C=C\CCCC(=O)O [15(R)-Prostaglandin D2]
- percent Bodipy-positive cells [6]: 13.3 ± 1.1%

Structure (SMILES): CCOc1cc(N)c(Cl)cc1C(=O)NCC1CN(Cc2ccc(F)cc2)CCO1 (stereo unspecified)
- percent Bodipy-positive cells [1]: 30.6 ± 0.79%

Structure (SMILES): CCOc1cc(N)c(Cl)cc1C(=O)NCC1CN(Cc2ccc(F)cc2)CCO1 (stereo unspecified) [Mosapride Citrate]
- percent Bodipy-positive cells [5]: 11.8 ± 0.52%
- percent Bodipy-positive cells [1]: 31.2 ± 10%

Structure (SMILES): COc1cc(Nc2ncc(F)c(Nc3ccc4c(n3)NC(=O)C(C)(C)O4)n2)cc(OC)c1OC.O=S(=O)(O)c1ccccc1
- percent Bodipy-positive cells [1]: 91.9 ± 3.7%

Structure (SMILES): Cc1cccc(Nc2ccccc2C(=O)O)c1C [Mefenamic Acid]
- percent Bodipy-positive cells [5]: 9.27 ± 2.7%
- percent Bodipy-positive cells [1]: 36.5 ± 17%

Structure (SMILES): Cc1cccc(Nc2ccccc2C(=O)O)c1C
- percent Bodipy-positive cells [1]: 31.8 ± 3.8%

Structure (SMILES): Cc1cccc(Nc2ccccc2C(=O)O)c1C [Mefenamic acid]
- percent Bodipy-positive cells: 30 ± 18%
- percent Bodipy-positive cells (library stock concentration: 8.3 mM): 9.58% and 13.1%
- percent Bodipy-positive cells [1]: 41.2 ± 1.9%

Structure (SMILES): CCC(C)n1ncn(-c2ccc(N3CCN(c4ccc(OCC5COC(Cn6cncn6)(c6ccc(Cl)cc6Cl)O5)cc4)CC3)cc2)c1=O (stereo unspecified) [Itraconazole]
- percent Bodipy-positive cells (library stock concentration: 2.8 mM): 7.07 ± 3%
- percent Bodipy-positive cells [5]: 52.3 ± 4.2%
- percent Bodipy-positive cells [1]: 53.36 ± 0.5%

Structure (SMILES): O=C(O)[C@]1(O)C[C@@H](O)[C@@H](O)[C@H](O)C1 [Quinic acid]
- percent Bodipy-positive cells: 8.79 ± 0.69%

Structure (SMILES): CNCCCN1c2ccccc2CCc2ccccc21 [Desipramine hydrochloride]
- percent Bodipy-positive cells (library stock concentration: 6.6 mM): 30.9 ± 3.9%
- percent Bodipy-positive cells [1]: 64.1 ± 7.5%

Structure (SMILES): CC(C)(C(=O)NCC(F)(F)C(F)(F)F)C(=O)N[C@@H]1C(=O)Nc2ccccc2-c2ccccc21
- percent Bodipy-positive cells [5]: 6.77 ± 1.9%
- percent Bodipy-positive cells [1]: 16.7 ± 0.8%

Structure (SMILES): CC[n+]1c(-c2ccccc2)c2cc(N)ccc2c2ccc(N)cc21 [Homidium bromide]
- percent Bodipy-positive cells [1]: 92.4 ± 3.1%

Structure (SMILES): O=C1OC(CN2CCOCC2)CN1/N=C/c1ccc([N+](=O)[O-])o1 (stereo unspecified) [Furaltadone hydrochloride]
- percent Bodipy-positive cells: 6.78 ± 1.1%

Structure (SMILES): O=C1OC(CN2CCOCC2)CN1/N=C/c1ccc([N+](=O)[O-])o1 (stereo unspecified) [Furaltadone HCl]
- percent Bodipy-positive cells [5]: 8.14 ± 6.1%
- percent Bodipy-positive cells [1]: 26.4 ± 7.5%

Structure (SMILES): O=C1OC(CN2CCOCC2)CN1/N=C/c1ccc([N+](=O)[O-])o1 (stereo unspecified)
- percent Bodipy-positive cells [1]: 33.56 ± 0.036%

Structure (SMILES): Cc1ccsc1C(=CCCN1CCC[C@@H](C(=O)O)C1)c1sccc1C
- percent Bodipy-positive cells [1]: 2.96 ± 0.12%

Structure (SMILES): O=C1c2c(O)cc(O)cc2O[C@H](c2cc(O)c(O)c(O)c2)[C@H]1O [Dihydromyricetin]
- percent Bodipy-positive cells [5]: 9.05 ± 2.6%
- percent Bodipy-positive cells [1]: 11.1 ± 1.8%

Structure (SMILES): Cc1ccc(-c2c(-c3nn(C)c4ncnc(N5CC[C@H](N6CCCCC6)C5)c34)cnn2C)cc1
- percent Bodipy-positive cells [5]: 8.38 ± 1.5%
- percent Bodipy-positive cells [1]: 25.1 ± 0.82%

Structure (SMILES): C[n+]1ccccc1C=NO [Pralidoxime mesylate]
- percent Bodipy-positive cells [1]: 36.3 ± 1.8%

Structure (SMILES): COc1ccc(CCC(C)NC2CC(C)(C)NC(C)(C)C2)cc1 (stereo unspecified)
- percent Bodipy-positive cells [1]: 93.6 ± 1.9%

Structure (SMILES): CCOC(=O)/C=C/[C@H](CC(C)C)NC(=O)[C@H](CO)NC(=O)[C@@H](NC(=O)c1cccc(O)c1C)C(C)C
- percent Bodipy-positive cells [6]: 10.3 ± 5.4%

Structure (SMILES): CC[C@@H]1/C=C(\C)C[C@H](C)C[C@H](OC)[C@H]2O[C@@](O)(C(=O)C(=O)N3CCCC[C@H]3C(=O)O[C@H](/C(C)=C/[C@@H]3CC[C@@H](O)[C@H](OC)C3)[C@H](C)[C@@H](O)CC1=O)[C@H](C)C[C@@H]2OC [Ascomycin (FK-520)]
- percent Bodipy-positive cells (library stock concentration: 6.3 mM): 7.64 ± 0.66%

Structure (SMILES): Cn1cc(-c2[nH]c3cc(NC(=O)[C@H](N)C4CCCCC4)cc4c3c2C=NNC4=O)cn1
- percent Bodipy-positive cells [5]: 29.7 ± 9.7%
- percent Bodipy-positive cells [1]: 61.2 ± 18%

Structure (SMILES): COc1ccc2cc(C(C#N)OC(=O)CC3OC3c3ccccc3)ccc2c1 (stereo unspecified)
- percent Bodipy-positive cells [6]: 11.1 ± 1%

Structure (SMILES): CCCCCCCCCCCCCCCC(=O)NCCS(=O)(=O)O [N-Palmitoyl Taurine]
- percent Bodipy-positive cells [6]: 10.1 ± 1.9%

Structure (SMILES): CC1(C)CNc2cc(NC(=O)c3cccnc3NCc3ccncc3)ccc21 [Motesanib (AMG-706) (10 mM)]
- percent Bodipy-positive cells [1]: 29.5 ± 6%

Structure (SMILES): CC1(C)CNc2cc(NC(=O)c3cccnc3NCc3ccncc3)ccc21 [Motesanib (AMG-706) (2 mM)]
- percent Bodipy-positive cells [4]: 9 ± 0.24%

Structure (SMILES): CC1(C)CNc2cc(NC(=O)c3cccnc3NCc3ccncc3)ccc21
- percent Bodipy-positive cells [2]: 4.7 ± 3.2%
- percent Bodipy-positive cells [3]: 6.89 ± 3%
- percent Bodipy-positive cells [4]: 8.54 ± 1%
- percent Bodipy-positive cells [1]: 10.4 ± 3.7%

Structure (SMILES): CC1(C)CNc2cc(NC(=O)c3cccnc3NCc3ccncc3)ccc21 [Motesanib Diphosphate (AMG-706)]
- percent Bodipy-positive cells [5]: 5.23 ± 1.8%
- percent Bodipy-positive cells [1]: 21.8 ± 1.3%

Structure (SMILES): CC1(C)CNc2cc(NC(=O)c3cccnc3NCc3ccncc3)ccc21 [Motesanib (AMG-706) (0.4 mM)]
- percent Bodipy-positive cells [3]: 15.6 ± 6.1%
